Assay results as given in patent US7045613.
Results are given in words; binding and its absence hold for the method and conditions named. Some results given as binding are weak or reduced against the parent protein; the word gives no strength.

The chains behind the UniProt entries cited, without tags or fusion partners. Where a name states a change or a piece, a line headed by the entry shows the natural chain unless it says otherwise.
UniProt P04386: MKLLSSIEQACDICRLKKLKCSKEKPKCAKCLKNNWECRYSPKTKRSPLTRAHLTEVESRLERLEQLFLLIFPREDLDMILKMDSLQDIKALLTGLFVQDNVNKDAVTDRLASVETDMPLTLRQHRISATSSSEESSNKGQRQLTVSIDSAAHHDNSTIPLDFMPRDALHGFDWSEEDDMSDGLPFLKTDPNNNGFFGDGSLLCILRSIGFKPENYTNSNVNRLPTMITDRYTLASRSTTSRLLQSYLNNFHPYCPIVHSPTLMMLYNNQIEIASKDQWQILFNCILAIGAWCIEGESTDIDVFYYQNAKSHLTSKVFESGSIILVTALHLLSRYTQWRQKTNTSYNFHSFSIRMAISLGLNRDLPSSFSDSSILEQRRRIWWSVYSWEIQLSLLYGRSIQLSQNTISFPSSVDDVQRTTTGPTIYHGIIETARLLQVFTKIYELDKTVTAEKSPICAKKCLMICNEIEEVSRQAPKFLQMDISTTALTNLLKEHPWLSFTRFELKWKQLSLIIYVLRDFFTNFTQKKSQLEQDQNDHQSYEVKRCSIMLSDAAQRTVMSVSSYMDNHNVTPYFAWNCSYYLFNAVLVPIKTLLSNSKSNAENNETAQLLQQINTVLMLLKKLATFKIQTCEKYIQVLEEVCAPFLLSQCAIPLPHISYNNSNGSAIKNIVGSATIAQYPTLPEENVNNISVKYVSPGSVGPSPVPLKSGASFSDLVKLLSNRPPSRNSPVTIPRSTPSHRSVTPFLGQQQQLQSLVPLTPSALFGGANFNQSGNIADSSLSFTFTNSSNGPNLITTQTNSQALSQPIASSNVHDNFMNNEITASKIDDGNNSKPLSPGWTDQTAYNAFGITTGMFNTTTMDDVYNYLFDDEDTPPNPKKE

Target: T1, IKK-α two-hybrid clone (human) (UniProt O15111)
T1 sequence: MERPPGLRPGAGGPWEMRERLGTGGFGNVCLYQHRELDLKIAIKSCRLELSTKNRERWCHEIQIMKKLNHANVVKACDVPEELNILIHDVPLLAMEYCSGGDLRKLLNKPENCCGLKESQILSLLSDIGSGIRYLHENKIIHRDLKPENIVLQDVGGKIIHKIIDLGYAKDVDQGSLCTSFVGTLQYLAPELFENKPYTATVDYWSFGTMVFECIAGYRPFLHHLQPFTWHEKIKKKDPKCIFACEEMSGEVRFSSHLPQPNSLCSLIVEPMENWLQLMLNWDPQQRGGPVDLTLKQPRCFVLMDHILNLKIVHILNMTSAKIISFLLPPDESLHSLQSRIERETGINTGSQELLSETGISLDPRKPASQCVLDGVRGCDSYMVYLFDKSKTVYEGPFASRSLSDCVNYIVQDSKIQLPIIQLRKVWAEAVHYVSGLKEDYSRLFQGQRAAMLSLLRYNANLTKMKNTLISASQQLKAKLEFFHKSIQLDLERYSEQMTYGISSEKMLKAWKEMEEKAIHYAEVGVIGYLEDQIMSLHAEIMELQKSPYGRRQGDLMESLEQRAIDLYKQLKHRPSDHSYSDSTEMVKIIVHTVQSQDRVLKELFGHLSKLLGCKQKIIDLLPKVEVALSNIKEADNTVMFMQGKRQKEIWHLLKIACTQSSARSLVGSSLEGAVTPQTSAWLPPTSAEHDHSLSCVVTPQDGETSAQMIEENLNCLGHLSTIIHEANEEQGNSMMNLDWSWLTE
Test: yeast two-hybrid, GAL4 DBD-NIK bait, his and lacZ reporters, with retransformation

NIK fused to the DNA-binding domain of the yeast transcription factor GAL4 (from UniProt P04386 1-147; Q99558 1-947)
binding: binds
